Literature values in patent US8097625B2, “Combination of sedative and a neurotransmitter modulator, and methods for improving sleep quality and treating depression” (priority 2003, dated 2012).
The match of structure and compound is tentative.

Chains of the proteins cited; added tags and fusions are not shown.
UniProt P31645, whole entry: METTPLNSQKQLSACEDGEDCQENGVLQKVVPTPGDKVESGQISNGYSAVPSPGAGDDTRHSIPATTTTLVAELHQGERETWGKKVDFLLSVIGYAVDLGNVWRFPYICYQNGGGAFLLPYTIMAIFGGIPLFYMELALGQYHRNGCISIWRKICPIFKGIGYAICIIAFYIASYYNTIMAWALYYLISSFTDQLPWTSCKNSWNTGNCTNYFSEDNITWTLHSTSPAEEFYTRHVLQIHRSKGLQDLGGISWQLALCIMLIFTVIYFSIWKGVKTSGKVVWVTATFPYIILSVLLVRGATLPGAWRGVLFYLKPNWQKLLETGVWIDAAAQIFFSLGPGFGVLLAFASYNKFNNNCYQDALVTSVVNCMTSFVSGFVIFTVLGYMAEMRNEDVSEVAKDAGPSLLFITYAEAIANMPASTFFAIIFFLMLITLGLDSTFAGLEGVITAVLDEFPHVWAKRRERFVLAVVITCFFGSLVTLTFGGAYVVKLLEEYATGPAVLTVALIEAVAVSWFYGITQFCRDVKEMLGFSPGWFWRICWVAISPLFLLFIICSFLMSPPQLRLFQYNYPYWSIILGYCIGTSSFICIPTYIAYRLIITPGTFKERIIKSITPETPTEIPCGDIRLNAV
UniProt P23975, whole entry: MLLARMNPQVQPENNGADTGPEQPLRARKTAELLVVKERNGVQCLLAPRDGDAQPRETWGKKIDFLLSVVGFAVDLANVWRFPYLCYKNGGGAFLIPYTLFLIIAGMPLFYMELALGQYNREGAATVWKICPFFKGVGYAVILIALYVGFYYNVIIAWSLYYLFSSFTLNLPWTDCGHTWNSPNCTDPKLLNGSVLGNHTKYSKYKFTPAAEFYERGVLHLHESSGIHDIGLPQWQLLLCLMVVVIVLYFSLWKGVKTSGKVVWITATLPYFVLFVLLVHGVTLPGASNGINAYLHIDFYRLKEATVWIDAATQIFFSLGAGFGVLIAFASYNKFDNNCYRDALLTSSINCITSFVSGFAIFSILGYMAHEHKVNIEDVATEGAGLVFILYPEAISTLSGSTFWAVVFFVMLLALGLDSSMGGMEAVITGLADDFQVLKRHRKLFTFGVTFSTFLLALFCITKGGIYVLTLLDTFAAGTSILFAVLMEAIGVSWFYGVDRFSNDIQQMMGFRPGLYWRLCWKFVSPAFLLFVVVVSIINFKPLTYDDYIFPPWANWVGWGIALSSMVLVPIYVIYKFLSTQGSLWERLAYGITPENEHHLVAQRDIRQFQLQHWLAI
UniProt Q01959, whole entry: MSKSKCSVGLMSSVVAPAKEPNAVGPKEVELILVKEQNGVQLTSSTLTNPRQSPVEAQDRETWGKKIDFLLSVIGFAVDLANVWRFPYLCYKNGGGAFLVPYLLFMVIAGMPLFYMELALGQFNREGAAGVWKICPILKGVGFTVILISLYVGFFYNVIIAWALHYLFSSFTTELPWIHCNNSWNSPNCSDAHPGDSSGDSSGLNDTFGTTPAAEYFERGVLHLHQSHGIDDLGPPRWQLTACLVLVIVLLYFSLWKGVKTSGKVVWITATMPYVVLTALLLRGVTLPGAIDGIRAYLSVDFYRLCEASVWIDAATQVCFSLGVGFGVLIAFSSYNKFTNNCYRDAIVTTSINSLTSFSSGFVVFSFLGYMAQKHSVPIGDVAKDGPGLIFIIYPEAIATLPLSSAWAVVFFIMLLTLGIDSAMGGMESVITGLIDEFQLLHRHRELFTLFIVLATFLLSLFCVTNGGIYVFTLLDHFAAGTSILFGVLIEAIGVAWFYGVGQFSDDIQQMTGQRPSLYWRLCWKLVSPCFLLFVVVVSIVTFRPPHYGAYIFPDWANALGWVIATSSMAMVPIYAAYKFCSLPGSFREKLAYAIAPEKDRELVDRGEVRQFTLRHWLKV

Legend:
[1] = target: serotonin transporter (Homo sapiens, UniProt P31645); settings: read-out: Ki, serotonin transporter; cited from earlier work
[2] = target: norepinephrine transporter (Homo sapiens, UniProt P23975); settings: read-out: Ki, norepinephrine transporter; cited from earlier work
[3] = target: dopamine transporter (Homo sapiens, UniProt Q01959); settings: read-out: IC50, dopamine transporter; cited from earlier work

Question: Which Ki [1] does the source give for `CCC(=O)C1C(c2ccc(C)cc2)CC2CCC1N2C` (stereo not drawn) here?
Answer: The Ki was 130 nM.

Question: What about the Ki [2] of the same compound?
Answer: The Ki was 160 nM.

Question: And the IC50 [3]?
Answer: Its IC50 is 8.2 nM.
